In PubChem BioAssay AID328 (DTP/NCI, 2004):
The list does not hold the whole screen: it gathers tests that were run many times, whatever their T/C, doses with no T/C, and many T/C values between a quarter and a half above the control. Further doses and runs are listed elsewhere. T/C: endpoint of the treated group in % of that of the vehicle group. Some doses have a count of surviving animals in place of a T/C: the source holds a T/C of zero for them, seemingly a mark for toxic or unscored doses. Some survivor counts are full or nearly so, which does not show that the dose was tolerated: the source hardly ever lists a survival T/C far under the control, and the zero likely stands for such cases as well. Survivors were counted at the toxicity check, usually on the fifth day, unless a day is given; later deaths do not show. Schedule codes are those of the source, read here as Q, the interval in days (D) or hours (H), X, the number of doses. Some entries were tested several times; the results are listed from low to high. For survival time, this PubChem deposit counts one and a half times the control or more as active, and values a quarter to a half above the control carry no call in these data; other NCI protocols may use other cut-offs. Some T/C values carry the count of animals alive at the toxicity check (mostly the fifth day); where none is given, no animal had died by that day.

Test system: BDF1 mice, P388 leukemia ip, median survival T/C
Test: NCI In Vivo Anticancer Drug Screen. Data for tumor model P388 Leukemia (intraperitoneal) in B6D2F1 (BDF1) mice
Settings: T/C endpoint: median survival time, higher T/C = longer survival
Method in brief: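 Each value expresses how treatment altered survival: treated-mouse outcome over vehicle-mouse outcome, both groups bearing the transplanted tumour.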

[1] = dose: 400.0 mg/kg/injection, schedule: Q04DX003 (ip), vehicle: saline
[2] = dose: 100.0 mg/kg/injection, schedule: Q04DX003 (ip), vehicle: water
[3] = dose: 200.0 mg/kg/injection, schedule: Q04DX003 (ip), vehicle: water
[4] = dose: 400.0 mg/kg/injection, schedule: Q01DX009 (ip), vehicle: saline with Tween-80
[5] = dose: 3.0 mg/kg/injection, schedule: Q01DX009 (ip), vehicle: Klucel (hydroxypropylcellulose) (HPC)
[6] = dose: 100.0 mg/kg/injection, schedule: Q01DX001 (ip), vehicle: saline with Tween-80
[7] = dose: 200.0 mg/kg/injection, schedule: Q01DX001 (ip), vehicle: saline with Tween-80
[8] = dose: 400.0 mg/kg/injection, schedule: Q04DX003 (ip), vehicle: saline with Tween-80
[9] = dose: 400.0 mg/kg/injection, schedule: Q01DX001 (ip), vehicle: saline with Tween-80

For `O=C(Nc1cccc(C(=O)Nc2ccc(C3=NCCN3)cc2)c1)c1ccc(C2=NCCN2)cc1`, the T/C (dose: 25.0 mg/kg/injection, schedule: Q01DX009 (ip), vehicle: saline) was 136 % of control, the T/C (dose: 37.5 mg/kg/injection, schedule: Q01DX009 (ip), vehicle: saline) was 145 % of control and the survivor count (dose: 100.0 mg/kg/injection, schedule: Q04DX003 (ip), vehicle: saline) was 0 of 6. For the same molecule, the survivor count (dose: 200.0 mg/kg/injection, schedule: Q04DX003 (ip), vehicle: saline) was 0 of 6 and the survivor count [1] was 0 of 6.

In the case of `C[n+]1ccc(Nc2ccc(NC(=O)c3ccc([N+](=O)[O-])cc3)cc2)cc1`, the T/C (dose: 50.0 mg/kg/injection, schedule: Q04DX003 (ip), vehicle: water, evaluated on day 22) is reported as 100 % of control, the T/C (dose: 50.0 mg/kg/injection, schedule: Q04DX003 (ip), vehicle: water, evaluated on day 30) is reported as 107, 113, 114 % of control and the T/C [2] is reported as 109, 112, 113 % of control. For the same molecule, the survivor count [2] was 3 of 6, the survivor count (dose: 200.0 mg/kg/injection, schedule: Q01DX009 (ip), vehicle: water) was 0 of 6 and the T/C (dose: 200.0 mg/kg/injection, schedule: Q04DX003 (ip), vehicle: water, evaluated on day 22) was 91 % of control [4 of 6 alive]. For the same molecule, the T/C (dose: 200.0 mg/kg/injection, schedule: Q04DX003 (ip), vehicle: water, evaluated on day 30) was 98 % of control [5 of 6 alive] and the survivor count [3] was 3 of 6 and 5 of 6.

In the case of `ClCCN(CCCl)c1ccc(/C=C\c2ccnc3ccccc23)cc1`, the survivor count [4] is reported as 5 of 6.

In the case of `CCC[CH2][Sn]1([CH2]CCC)[N](S(=O)(=O)c2ccc(C)cc2)c2ccccc2[N]1S(=O)(=O)c1ccc(C)cc1`, the T/C [5] is reported as 127 and 140 % of control, the T/C (dose: 6.0 mg/kg/injection, schedule: Q01DX009 (ip), vehicle: Klucel (hydroxypropylcellulose) (HPC)) is reported as 137 % of control and the survivor count (dose: 12.0 mg/kg/injection, schedule: Q01DX009 (ip), vehicle: Klucel (hydroxypropylcellulose) (HPC)) is reported as 6 of 6. For the same molecule, the survivor count (dose: 24.0 mg/kg/injection, schedule: Q01DX009 (ip), vehicle: Klucel (hydroxypropylcellulose) (HPC)) was 4 of 6.

`C=C(C)CSC(=S)NNc1ccccc1` was tested, and the T/C (dose: 225.0 mg/kg/injection, schedule: Q01DX009 (ip), vehicle: Klucel (hydroxypropylcellulose) (HPC)) was 125 % of control, the survivor count (dose: 225.0 mg/kg/injection, schedule: Q01DX009 (ip), vehicle: alcohol) was 1 of 6 and the survivor count (dose: 335.0 mg/kg/injection, schedule: Q01DX009 (ip), vehicle: alcohol) was 0 of 6. For the same molecule, the survivor count (dose: 400.0 mg/kg/injection, schedule: Q01DX001 (ip), vehicle: alcohol) was 1 of 6.

`COc1ccc(-c2cc(C)n(C)[n+]2C)cc1` was tested, and the survivor count (dose: 50.0 mg/kg/injection, schedule: Q01DX009 (ip), vehicle: saline with Tween-80) was 2 of 6.

In the case of `COC(OC)c1nc(SC)[nH]c(=O)c1C`, the survivor count [4] is reported as 6 of 6.

For `ClCCN(CCCl)c1cc(OCc2ccccc2)cc(OCc2ccccc2)c1`, the survivor count (dose: 25.0 mg/kg/injection, schedule: Q01DX009 (ip), vehicle: water) was 6 of 6, the survivor count (dose: 50.0 mg/kg/injection, schedule: Q01DX009 (ip), vehicle: water) was 6 of 6 and the survivor count (dose: 100.0 mg/kg/injection, schedule: Q01DX009 (ip), vehicle: water) was 6 of 6. For the same molecule, the survivor count (dose: 400.0 mg/kg/injection, schedule: Q01DX009 (ip), vehicle: water) was 6 of 6.

`c1ccc(N/N=C(/C[n+]2cc3ccccc3c3ccccc32)c2ccccc2)cc1` was tested, and the T/C (dose: 50.0 mg/kg/injection, schedule: Q01DX009 (ip), vehicle: Klucel (hydroxypropylcellulose) (HPC)) was 128 % of control.

In the case of `COC(=O)c1c(-c2ccccc2)c(-c2ccccc2)nn(-c2ccccc2)c1=O`, the T/C [6] is reported as 125 % of control and the T/C [7] is reported as 132 % of control.

`O=[N+]([O-])c1ccc(Sc2ccc(Cl)cc2)c2nonc12` was tested, and the survivor count (dose: 25.0 mg/kg/injection, schedule: Q01DX009 (ip), vehicle: saline with Tween-80) was 3 of 7 and the survivor count (dose: 100.0 mg/kg/injection, schedule: Q01DX009 (ip), vehicle: saline with Tween-80) was 2 of 7.

In the case of `CCOC(=O)C(C)(C)CN(CC(C)(C)C(=O)OCC)C(C)(C)C`, the T/C (dose: 200.0 mg/kg/injection, schedule: Q01DX001 (ip), vehicle: saline) is reported as 140 % of control.

With `Nc1nc(=O)n(CC(=O)c2cccs2)cc1F` the survivor count [4] was 0 of 6 and the survivor count [8] was 0 of 6.

For `CC(=O)[O][Pb]([CH2]CC(C)C)([CH2]CC(C)C)[CH2]CC(C)C`, the T/C (dose: 0.38 mg/kg/injection, schedule: Q01DX009 (ip), vehicle: saline with Tween-80) was 132 % of control, the T/C (dose: 0.75 mg/kg/injection, schedule: Q01DX009 (ip), vehicle: Klucel (hydroxypropylcellulose) (HPC)) was 131 % of control and the survivor count (dose: 0.75 mg/kg/injection, schedule: Q01DX009 (ip), vehicle: saline with Tween-80) was 1 of 6. For the same molecule, the T/C (dose: 1.5 mg/kg/injection, schedule: Q01DX009 (ip), vehicle: Klucel (hydroxypropylcellulose) (HPC)) was 125 and 129 % of control, the survivor count (dose: 1.5 mg/kg/injection, schedule: Q01DX009 (ip), vehicle: saline with Tween-80) was 0 of 6 and the survivor count [5] was 0 of 6. For the same molecule, the survivor count (dose: 3.0 mg/kg/injection, schedule: Q01DX009 (ip), vehicle: saline with Tween-80) was 0 of 6.

In the case of `Cn1ncc2c(N)c(C#N)c(=O)[nH]c21`, the survivor count [7] is reported as 0 of 6 and the survivor count [9] is reported as 3 of 6.

`[O-][n+]1ccccc1Br` was tested, and the survivor count [3] was 4 of 6 and the survivor count (dose: 400.0 mg/kg/injection, schedule: Q04DX003 (ip), vehicle: water) was 0 of 6.

With `N#CCN1CCOCC1` the survivor count (dose: 300.0 mg/kg/injection, schedule: Q01DX009 (ip), vehicle: saline) was 1 of 6 and the survivor count [1] was 3 of 6.

With `Cc1cc(=O)n(Cc2ccccc2)c(O)c1C` the survivor count (dose: 400.0 mg/kg/injection, schedule: Q04DX003 (ip), vehicle: Klucel (hydroxypropylcellulose) (HPC)) was 5 of 6.

For `C=C1C(=O)OC2CC(C)/C=C\C(=O)C(C)(O)C(O)C(O)C12` (stereo not given) (tested in a mixture with another compound), the survivor count [6] was 1 of 6, the survivor count [7] was 0 of 6 and the survivor count [9] was 0 of 6.

`O=P(N1CC1)(N1CC1)N1CC2CCC(CC2)C1` was tested, and the T/C (dose: 16.5 mg/kg/injection, schedule: Q04DX003 (ip), vehicle: saline) was 136 % of control.

`CCC1(C(C)Br)OC2=C(CC(C#N)(C#N)C(C#N)(C#N)C2)O1` (stereo not given) was tested, and the survivor count (dose: 100.0 mg/kg/injection, schedule: Q01DX001 (ip), vehicle: Klucel (hydroxypropylcellulose) (HPC)) was 1 of 6, the survivor count (dose: 200.0 mg/kg/injection, schedule: Q01DX001 (ip), vehicle: Klucel (hydroxypropylcellulose) (HPC)) was 3 of 6 and the survivor count (dose: 400.0 mg/kg/injection, schedule: Q01DX001 (ip), vehicle: Klucel (hydroxypropylcellulose) (HPC)) was 3 of 6.

In the case of `NC(=S)N=Nc1c(O)[nH]c2ccccc12`, the survivor count (dose: 400.0 mg/kg/injection, schedule: Q01DX009 (ip), vehicle: Klucel (hydroxypropylcellulose) (HPC)) is reported as 5 of 6.

For `CCC(C)C1NC(=O)C(NC(=O)c2c3nc4c(C(=O)NC5C(=O)NC(C(C)CC)C(=O)N6CCCC6C(=O)N(C)CC(=O)N(C)C(C(C)C)C(=O)OC5C)cc([N+](=O)[O-])c(C)c4oc-3c(C)c(=O)c2N)C(C)OC(=O)C(C(C)C)N(C)C(=O)CN(C)C(=O)C2CCCN2C1=O` (stereo not given), the T/C (dose: 0.15 mg/kg/injection, schedule: Q04DX003 (ip), vehicle: saline + alcohol) was 125 % of control, the T/C (dose: 2.4 mg/kg/injection, schedule: Q04DX003 (ip), vehicle: saline + alcohol) was 125 % of control and the T/C (dose: 25.0 micrograms/kg/injection, schedule: Q01DX009 (ip), vehicle: saline + alcohol) was 147 % of control.

With `CN(C)c1ccc(C=O)c(Oc2ccccc2)c1` the survivor count (dose: 100.0 mg/kg/injection, schedule: Q04DX003 (ip), vehicle: Klucel (hydroxypropylcellulose) (HPC)) was 5 of 6.

In the case of `CCC(CN(C)C)C(=O)c1ccccc1` (stereo not given), the survivor count (dose: 200.0 mg/kg/injection, schedule: Q04DX003 (ip), vehicle: saline with Tween-80) is reported as 2 of 6, the survivor count [9] is reported as 1 of 6 and the survivor count [8] is reported as 0 of 6.
